Experimental data: paper PMC10167262
No constants are given. Whether binding was seen depends on the method and setting. In cells and extracts the contact can be indirect. Some binding calls cover weakened binding; strength is not graded here.

Chains of the proteins cited; added tags and fusions are not shown.
UniProt P12956: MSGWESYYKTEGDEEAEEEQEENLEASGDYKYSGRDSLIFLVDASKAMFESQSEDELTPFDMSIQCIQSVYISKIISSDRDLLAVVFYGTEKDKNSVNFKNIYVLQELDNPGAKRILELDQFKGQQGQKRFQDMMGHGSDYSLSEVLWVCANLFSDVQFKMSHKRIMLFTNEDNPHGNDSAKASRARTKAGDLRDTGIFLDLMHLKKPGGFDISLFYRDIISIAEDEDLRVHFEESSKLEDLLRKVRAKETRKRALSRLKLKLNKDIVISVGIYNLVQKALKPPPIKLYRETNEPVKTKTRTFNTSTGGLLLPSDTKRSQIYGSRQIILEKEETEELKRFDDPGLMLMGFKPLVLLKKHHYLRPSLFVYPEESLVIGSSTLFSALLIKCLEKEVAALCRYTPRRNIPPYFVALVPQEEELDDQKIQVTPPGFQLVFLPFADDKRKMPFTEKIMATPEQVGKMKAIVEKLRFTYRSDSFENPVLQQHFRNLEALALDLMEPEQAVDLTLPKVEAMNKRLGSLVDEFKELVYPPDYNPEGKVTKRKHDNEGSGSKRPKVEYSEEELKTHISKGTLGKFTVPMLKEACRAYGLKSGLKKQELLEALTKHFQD

Biological target: Ku70 (human (endogenous in MDA-MB-231)) (UniProt P12956)
Test: co-IP; endogenous proteins; cells lysed in NETN buffer (20 mM Tris-HCl pH 8.0, 100 mM NaCl, 0.5% NP-40); immunoprecipitation with CXorf56 protein or Ku70 antibody, overnight at 4 °C, agarose beads; immunoblot; also MDA-MB-231 cells synchronized with nocodazole and released, without or with IR (2 Gy, 1 hour)

binding: binds
Substance: CXorf56 protein (from UniProt Q9H5V9 1-222)
